Results on one substance are retold here after patent publication US3944538 (dated 1976).

This data set can be described thus: solution-phase peptide synthesis; ortho-nitrophenyl active ester, triethylamine. As to conditions: coupling step.

Substance “tert.Butyloxycarbonyl-L-leucyl-L-leucyl-L-glutaminylglycyl-L-leucyl-L-valinamide” yielded a step yield of 98.4%.
